Test results from publication PMC7819943, “Rice protein-binding microarrays: a tool to detect cis-acting elements near promoter regions in rice”.
The list shows a part of the results.

Chains of the proteins cited; added tags and fusions are not shown.
UniProt Q0JBA9, entry or part of it: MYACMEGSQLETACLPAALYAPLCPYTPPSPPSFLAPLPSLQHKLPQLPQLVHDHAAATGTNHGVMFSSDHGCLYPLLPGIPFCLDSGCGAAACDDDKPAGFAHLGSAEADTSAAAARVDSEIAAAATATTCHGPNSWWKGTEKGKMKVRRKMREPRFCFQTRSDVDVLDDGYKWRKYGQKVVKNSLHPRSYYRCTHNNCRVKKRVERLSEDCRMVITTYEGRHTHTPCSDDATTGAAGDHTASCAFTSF

What follows are sequences tested against OsWRKY34 (Oryza sativa, UniProt Q0JBA9 1-250) (assay: protein-binding microarray (RPBM); PBS, 2% BSA, 51.3 ng/ul salmon testes DNA, 50 uM zinc acetate, 200 nM TF, 25 C, 1 h; high values mean tight binding). Conditions: protein: recombinant; tags: N-terminal polyhistidine and DsRed monomer fusion (pET32a); label: CyDye5-dUTP incorporated in the synthesized complementary strand; 3' TTTTT single-stranded linker to array surface; dsDNA, one strand shown.
Summary of the method: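 Using Ni–NTA, transcription factors fused N-terminally to polyhistidine and DsRed were purified after expression in E. coli BL21-CodonPlus. These were incubated at 200 nM with a blocked, double-stranded custom Agilent array for 1 h at 25 °C in a buffer containing 50 µM zinc acetate, and the array was washed. The binding signal is per-feature fluorescence intensity (arbitrary units) on an Axon 4000B scanner.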

**Q.** For “GCAAGTATCCAACTCATCTCTTTCCTTATCTCAGTCAATCCGGAGTCACCTAGTGCAG”, which binding signal is on record?
**A.** 9220 fluorescence intensity (a.u.)

**Q.** With “GGTTGGTGGTGGAGGTGGTCAAGGCGGTGGTTTTGGAGCCCGGAGTCACCTAGTGCAG” as the sequence, how does the binding signal read?
**A.** 16400 fluorescence intensity (a.u.)

**Q.** For “CCCTCCTTCCACCACCGAAGCACGACCTCCACCTCGCTCTCGGAGTCACCTAGTGCAG”, which binding signal is on record?
**A.** 8810 fluorescence intensity (a.u.)

**Q.** With “GCCGCTCTCTGCCCATTCTCTTCTCCACGGCAAACCACCACGGAGTCACCTAGTGCAG” as the sequence, how does the binding signal read?
**A.** 9340 fluorescence intensity (a.u.)

**Q.** Which binding signal does the source give for “GGGATGTGGCGGGCGGTGGGTCCAGGGAGGAGGAGGAGAACGGAGTCACCTAGTGCAG” here?
**A.** 15000 fluorescence intensity (a.u.)

**Q.** Which binding signal does the source give for “AAAAAACCCATGCTACTTGTCACGTTGCCGTCTCATCTCACGGAGTCACCTAGTGCAG” here?
**A.** 9050 fluorescence intensity (a.u.)

**Q.** How did the binding signal turn out when “GCCACATGATTTTTCATTCTAGATGGTTGGGAATGGCTTACGGAGTCACCTAGTGCAG” was run?
**A.** 8560 fluorescence intensity (a.u.)

**Q.** How did the binding signal turn out when “TATTCGTTAGTATATATGACGCCTCTATTGATTTTATTTTCGGAGTCACCTAGTGCAG” was run?
**A.** 8240 fluorescence intensity (a.u.)

**Q.** Which binding signal does the source give for “GATAACTCATTTTATTTCATCCTTGTTTCATCTTACTTCCCGGAGTCACCTAGTGCAG” here?
**A.** 13800 fluorescence intensity (a.u.)

**Q.** With “AACACAACCTAATTCTCTCCACGCTTTCCTGTGCTCTTTCCGGAGTCACCTAGTGCAG” as the sequence, how does the binding signal read?
**A.** 10900 fluorescence intensity (a.u.)

**Q.** “GTTCCTGCACCGCCCGCGCCCTAGCGTTTGCTTGCTCATCCGGAGTCACCTAGTGCAG” was tested. Which binding signal did it give?
**A.** 8670 fluorescence intensity (a.u.)

**Q.** How did the binding signal turn out when “GGTTTCCCATGGTCATTTACTGGCGTCGCGTCTTTTGGGGCGGAGTCACCTAGTGCAG” was run?
**A.** 8210 fluorescence intensity (a.u.)

**Q.** Which binding signal does the source give for “ACTATTTTTTATCTTTTGTCTAACTTACATATATGCCCCACGGAGTCACCTAGTGCAG” here?
**A.** 8470 fluorescence intensity (a.u.)

**Q.** “CTAAAATACAAGACCCATTTCACGTTTGCATAGCGCTACACGGAGTCACCTAGTGCAG” was tested. Which binding signal did it give?
**A.** 8350 fluorescence intensity (a.u.)

**Q.** Which binding signal does the source give for “AGTGGTGCATTCTGTTTTTTTATATATTATTATTTGTTTACGGAGTCACCTAGTGCAG” here?
**A.** 9050 fluorescence intensity (a.u.)

**Q.** How did the binding signal turn out when “CTCTCTCGCGACTCCTCGCCACCGCCTTCGGACCACGAGACGGAGTCACCTAGTGCAG” was run?
**A.** 8220 fluorescence intensity (a.u.)

**Q.** Which binding signal does the source give for “TTATTTGTTTAATTAGGACGTTCCACGTGTTTGACTATCACGGAGTCACCTAGTGCAG” here?
**A.** 8980 fluorescence intensity (a.u.)

**Q.** For “TCATTCCATAAGCTTGGACTAATTCGCGAGACGAATCTTTCGGAGTCACCTAGTGCAG”, which binding signal is on record?
**A.** 8240 fluorescence intensity (a.u.)

**Q.** For “GTATATTATGGTTTTGACTTATCGATATTGGTTTCTTGACCGGAGTCACCTAGTGCAG”, which binding signal is on record?
**A.** 9500 fluorescence intensity (a.u.)

**Q.** For “GTACTTAGAATTCTGCAGCTGCAGCTTTCATGAAACTAAACGGAGTCACCTAGTGCAG”, which binding signal is on record?
**A.** 8190 fluorescence intensity (a.u.)

**Q.** How did the binding signal turn out when “CCATGCCTGTAATTTGTCATGCCAAAACGTTCAGAATATTCGGAGTCACCTAGTGCAG” was run?
**A.** 9960 fluorescence intensity (a.u.)

**Q.** How did the binding signal turn out when “GGTCTATTTCTGTAATTAATTTTTCCGAGAAAGTTCTTTTCGGAGTCACCTAGTGCAG” was run?
**A.** 9870 fluorescence intensity (a.u.)

**Q.** With “ACTGTTGATGTGATCCACGAGAGGAGTCAGTGAGCACAACCGGAGTCACCTAGTGCAG” as the sequence, how does the binding signal read?
**A.** 8350 fluorescence intensity (a.u.)

**Q.** With “AACTGTGTAGTTGGTTTTTTTCCACATTTAATATTTCATACGGAGTCACCTAGTGCAG” as the sequence, how does the binding signal read?
**A.** 8210 fluorescence intensity (a.u.)

**Q.** For “CTGAAGCCGACTCCACTCATCTACCTATATTAGTAACCCCCGGAGTCACCTAGTGCAG”, which binding signal is on record?
**A.** 8790 fluorescence intensity (a.u.)

**Q.** “ATGCTTGGGACCTTTATTTATTCACTACTACACTTTAAACCGGAGTCACCTAGTGCAG” was tested. Which binding signal did it give?
**A.** 9220 fluorescence intensity (a.u.)

**Q.** How did the binding signal turn out when “ATATCGGTCTCTTCATTCTCCACCTCGATAGCCGCCGAGACGGAGTCACCTAGTGCAG” was run?
**A.** 12800 fluorescence intensity (a.u.)

**Q.** With “CCGCCATGTGAGCCTTCCATCACCGTTTCCGCTCCTCACCCGGAGTCACCTAGTGCAG” as the sequence, how does the binding signal read?
**A.** 8860 fluorescence intensity (a.u.)

**Q.** Which binding signal does the source give for “TGGTCGTCTTCCTCCTCGAGCCATTCCACAAAATTCGGCACGGAGTCACCTAGTGCAG” here?
**A.** 8120 fluorescence intensity (a.u.)

**Q.** For “ACTACTGTATATTCCTATGCTCGTATATATACTACCCTGTCGGAGTCACCTAGTGCAG”, which binding signal is on record?
**A.** 10600 fluorescence intensity (a.u.)

**Q.** How did the binding signal turn out when “ATATTCAGCTGATTGGGGCATTGGGTATTTGCAGTGAGCACGGAGTCACCTAGTGCAG” was run?
**A.** 8770 fluorescence intensity (a.u.)

**Q.** With “CACTGATTTTGCTATGTTTACTTTATGTATAGGTGTTTCTCGGAGTCACCTAGTGCAG” as the sequence, how does the binding signal read?
**A.** 10800 fluorescence intensity (a.u.)

**Q.** “AGCCGCGTGTCGACTATGATCTTCTAACTGCACACTATACCGGAGTCACCTAGTGCAG” was tested. Which binding signal did it give?
**A.** 11700 fluorescence intensity (a.u.)

**Q.** With “CTATTCTGGCACCTACAATTCCAAGCTTATCACGACGATGCGGAGTCACCTAGTGCAG” as the sequence, how does the binding signal read?
**A.** 12100 fluorescence intensity (a.u.)

**Q.** “GCTTTTCGTCCCTATCTTGAATTCTCCTCTCTCTCAATCGCGGAGTCACCTAGTGCAG” was tested. Which binding signal did it give?
**A.** 8670 fluorescence intensity (a.u.)

**Q.** How did the binding signal turn out when “CCCGCAGATGTGCTTCATCTCCTGCAGCTTCTTCACAATCCGGAGTCACCTAGTGCAG” was run?
**A.** 9820 fluorescence intensity (a.u.)

**Q.** “ATTCCATTTCCATTCCCGCTTGATTTTCCCTCCCATTCTTCGGAGTCACCTAGTGCAG” was tested. Which binding signal did it give?
**A.** 8300 fluorescence intensity (a.u.)

**Q.** Which binding signal does the source give for “ACAGTCCCTCGCGTTGTCGCTGTCCGCCAGAGCGCCAGACCGGAGTCACCTAGTGCAG” here?
**A.** 10800 fluorescence intensity (a.u.)

**Q.** How did the binding signal turn out when “TAATGTATGACGCCGTTGACTTTTTAACTAACGTTTGACCCGGAGTCACCTAGTGCAG” was run?
**A.** 28700 fluorescence intensity (a.u.)

**Q.** Which binding signal does the source give for “CCTGCCACCTCTCCCTCTCTCGCCCGCGCAGTCCACGCACCGGAGTCACCTAGTGCAG” here?
**A.** 9210 fluorescence intensity (a.u.)

**Q.** For “TCTTTCAATTCTTCTCTTGTATGGATGGTTTGGTTTGTTGCGGAGTCACCTAGTGCAG”, which binding signal is on record?
**A.** 9620 fluorescence intensity (a.u.)

**Q.** With “TTTCCGTTTCTGAAACAGTGCCATTGACAGGTGGGCCCACCGGAGTCACCTAGTGCAG” as the sequence, how does the binding signal read?
**A.** 8950 fluorescence intensity (a.u.)
